Reference: patent US20030199579A1, “Ectoparasitic insect pest controllers for animals and their usage” (priority 2000, published 2003)
Some entries share one result that the patent states for a list of compounds.

System: adult worm of cat flea (Ctenocephalides felis)
Assay: Test Example 1: spot-on agent on a cat parasitized by cat fleas, controlling rate
Assay type: in vivo
Settings: cat (3.2 kg) with 30 cat fleas; 0.4 ml spot-on agent (10 parts by weight compound in 90 parts diethylene glycol monoethyl ether) on skin of back shoulder area; parasitic fleas counted one day and three days after treatment

`N#Cc1ccc(C/C(=N\NC(=O)Nc2ccc(OC(F)(F)F)cc2)c2cccc(C(F)(F)F)c2)cc1` [Compound No. 44, (E)-2-[2-(4-cyanophenyl)-1-(3-trifluoromethylphenyl)ethylidene]-N-(4-trifluoromethoxyphenyl)hydrazine carboxamide] was tested, and the “judgement of controlling rate” value was “A (100)”.
